Data as given in PubChem BioAssay AID743121 (NCATS, 2013)
Here is an unselected part of about 26,000 deposited reagents. 167 of them (0.63%) were called active. 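Calls are per gene from RSA p-values that are not deposited; an individual active-marked siRNA can sensitise only weakly.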 The numbers tell different reagents against one gene apart.

Aim: 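Genes whose silencing strengthens cell killing by camptothecin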 (primary screen)
Cell system: MDA-MB-231 cells, a human breast cancer line
Reagents: single siRNA against human genes, 20 nM siRNA (0.8 pmol per well)
Time to read-out: 120 h (drug added 48 h after transfection, read 72 h later)
Treatment: camptothecin 20 nM (about EC30) for 72 h; vehicle 0.1% DMSO in parallel plates
Measured: 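CellTiter-Glo ATP signal, scaled to control siRNA as percent viability; sensitisation given as log2 of untreated divided by camptothecin-treated viability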
Scale: log2 vehicle/camptothecin viability: higher = stronger sensitisation to camptothecin; viability with camptothecin and viability without drug: higher = more viable cells
Call rule: 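Each gene scored by redundant siRNA activity (RSA) over its individual siRNA ratios; a gene is called active at p < 0.001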

gene | reagent | log2 vehicle/camptothecin viability | viability with camptothecin (% of control) | viability without drug (% of control) | Call
GALT | 1 | 0.102 | 30.6 | 32.9 | inactive
GALT | 2 | -0.328 | 72.7 | 57.9 | inactive
GALT | 3 | -0.51 | 96.2 | 67.5 | inactive
GALT | 4 | -0.27 | 72.1 | 59.8 | inactive
TCF20 | 1 | -0.234 | 69.5 | 59.1 | inactive
TCF20 | 2 | -0.082 | 39.8 | 37.6 | inactive
TCF20 | 3 | 0.14 | 75.1 | 82.8 | inactive
TCF20 | 4 | -0.275 | 78.1 | 64.5 | inactive
PFKFB3 | 1 | -0.847 | 67 | 37.3 | inactive
PFKFB3 | 2 | 0.112 | 70.5 | 76.3 | inactive
PFKFB3 | 3 | -0.29 | 82 | 67 | inactive
PFKFB3 | 4 | -0.0284 | 107 | 105 | inactive
MPG | 1 | -0.0868 | 69.2 | 65.2 | inactive
MPG | 2 | -0.163 | 105 | 93.8 | inactive
MPG | 3 | -0.308 | 38.4 | 31 | inactive
MPG | 4 | 0.136 | 96 | 105 | inactive
MAD2L2 | 1 | 0.244 | 69.7 | 82.6 | inactive
MAD2L2 | 2 | -0.336 | 56.6 | 44.8 | inactive
MAD2L2 | 3 | -0.214 | 101 | 86.8 | inactive
P2RY10 | 1 | -0.192 | 102 | 89 | inactive
P2RY10 | 2 | -0.381 | 99.8 | 76.6 | inactive
P2RY10 | 3 | 0.0349 | 51.5 | 52.8 | inactive
P2RY10 | 4 | -0.521 | 63.6 | 44.3 | inactive
CDK1 | 1 | -0.331 | 58.2 | 46.3 | inactive
CDK1 | 2 | -0.616 | 95.7 | 62.4 | inactive
CDK1 | 3 | -0.369 | 62.8 | 48.7 | inactive
AKAP12 | 1 | 0.123 | 63 | 68.6 | inactive
AKAP12 | 2 | -0.0528 | 98.3 | 94.8 | inactive
AKAP12 | 3 | -0.257 | 104 | 86.9 | inactive
AKAP12 | 4 | -0.239 | 110 | 93.1 | inactive
TRIM58 | 1 | -0.577 | 68.8 | 46.1 | inactive
TRIM58 | 2 | -0.0882 | 53.6 | 50.4 | inactive
TRIM58 | 3 | -0.0991 | 71.9 | 67.1 | inactive
TRIM58 | 4 | -0.115 | 49.6 | 45.8 | inactive
ATP1A2 | 1 | 0.132 | 37.1 | 40.7 | inactive
ATP1A2 | 2 | 0.0328 | 84.3 | 86.2 | inactive
ATP1A2 | 3 | -0.402 | 71.8 | 54.3 | inactive
ATP1A2 | 4 | -0.233 | 75.8 | 64.5 | inactive
KDM5D | 1 | -0.395 | 48.5 | 36.9 | inactive
KDM5D | 2 | 0.124 | 81 | 88.3 | inactive
KDM5D | 3 | -0.027 | 49.3 | 48.4 | inactive
KDM5D | 4 | -0.416 | 112 | 83.7 | inactive
PPM1F | 1 | -0.507 | 27.7 | 19.5 | inactive
PPM1F | 2 | -0.273 | 114 | 94.4 | inactive
PPM1F | 3 | -0.204 | 79.5 | 69 | inactive
PPM1F | 4 | -0.121 | 74.2 | 68.2 | inactive
ABCF1 | 1 | 0.141 | 75 | 82.7 | inactive
ABCF1 | 2 | -0.223 | 88.8 | 76.1 | inactive
ABCF1 | 3 | 0.00847 | 54.1 | 54.4 | inactive
ABCF1 | 4 | 0.435 | 4.23 | 5.72 | inactive
EIF2AK3 | 1 | -0.508 | 58.2 | 41 | inactive
EIF2AK3 | 2 | -0.0719 | 117 | 112 | inactive
EIF2AK3 | 3 | -0.581 | 47.4 | 31.7 | inactive
EIF2AK3 | 4 | -0.197 | 111 | 96.9 | inactive
KIF11 | 1 | -0.446 | 60.3 | 44.2 | inactive
KIF11 | 2 | -0.0736 | 43.3 | 41.1 | inactive
KIF11 | 3 | 0.0774 | 18.2 | 19.2 | inactive
CSH1 | 1 | -0.484 | 74.3 | 53.2 | inactive
CSH1 | 2 | 0.118 | 58.6 | 63.6 | inactive
CSH1 | 3 | -0.415 | 74.2 | 55.6 | inactive
PPM1B | 1 | -0.288 | 122 | 100 | inactive
PPM1B | 2 | -0.143 | 101 | 91.4 | inactive
PPM1B | 3 | -0.151 | 85.3 | 76.9 | inactive
PPM1B | 4 | -0.0991 | 110 | 102 | inactive
PPM1B | 5 | -0.362 | 86.9 | 67.6 | inactive
PPM1B | 6 | 0.129 | 63.8 | 69.8 | inactive
PPM1B | 7 | -0.183 | 90 | 79.3 | inactive
PPM1B | 8 | -0.345 | 108 | 85.3 | inactive
TPSD1 | 1 | -0.0715 | 88.4 | 84.2 | inactive
TPSD1 | 2 | -0.254 | 80.1 | 67.2 | inactive
TPSD1 | 3 | 0.562 | 45.5 | 67.2 | inactive
TPSD1 | 4 | -0.395 | 72.8 | 55.4 | inactive
OR4C3 | 1 | -0.225 | 99.4 | 85 | inactive
OR4C3 | 2 | -0.379 | 67.6 | 52 | inactive
OR4C3 | 3 | 0.106 | 76.6 | 82.5 | inactive
OR4C3 | 4 | -0.437 | 120 | 88.6 | inactive
ZNF346 | 1 | -0.157 | 68.8 | 61.8 | inactive
ZNF346 | 2 | -0.255 | 82.9 | 69.5 | inactive
ZNF346 | 3 | -0.18 | 53.3 | 47 | inactive
ZNF346 | 4 | -0.21 | 104 | 89.6 | inactive
CFL2 | 1 | -0.0281 | 112 | 110 | inactive
CFL2 | 2 | 0.067 | 20.7 | 21.6 | inactive
CFL2 | 3 | 0.102 | 82.1 | 88.1 | inactive
CFL2 | 4 | 0.147 | 88 | 97.5 | inactive
APPBP2 | 1 | -0.0989 | 105 | 98.2 | inactive
APPBP2 | 2 | -0.134 | 68.3 | 62.2 | inactive
APPBP2 | 3 | -0.188 | 41.4 | 36.3 | inactive
APPBP2 | 4 | -0.474 | 53.5 | 38.5 | inactive

Only “viability with camptothecin (% of control)”, for 5 of the entries above:
KIF11 #3	18.2
CSH1 #1	74.3
CSH1 #2	58.6
CSH1 #3	74.2
PPM1B #1	122
